# In all, about 330,000 compounds went through this assay and about 1,000 (0.3%) were called active. Inconclusive means that the source gave no clear call. Such entries were picked first, then a sample of the others. Calls come from the whole dose curve; as a rule, active = well fitted inhibition curve with a large enough effect; inconclusive = small, poorly fitted or top-dose-only effect; inactive = no such curve, though single readings can be large or run the other way; tested in mouse RAW 264.7 cells. Where the call is inconclusive, the potency comes from a doubtful curve fit.
# Experiment: qHTS for Inhibitors of Cell Surface uPA Generation; note: nearly all actives have a fitted effect of over 55% in size
# Conditions: cell surface uPA generation assay; series mostly up to 38.3 µM; activity change, negative = inhibition: at the top concentration
# Procedure, shortened: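 Validation set in qHTS format. RAW 264.7 cells were pre-plated overnight and then exposed to compounds (up to 38.3 uM final) for 24 h at 37 C in 5% CO2, followed by a luminescent ATP-Lite measurement.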
# % is set by controls: 0 for no effect and ±100 for the full control effect; potency is the fitted concentration of half-maximal effect.
SMILES,Potency,"activity change, negative = inhibition"
CCn1nnnc1SCC(=O)N1CCN(c2ccccc2)CC1,"inconclusive: 10 µM [inhibitor, partial curve, poor fit]",–
Cc1cc(OCC(=O)Nc2ccc(CN3CCOCC3)cc2)c2c(C)cc(=O)oc2c1,"inconclusive: 12.6 µM [inhibitor, single point]",–
Cc1ccc(NC(=O)CSc2nc(N)c3cc4c(nc3n2)CCCC4)cc1,"inconclusive: 28.2 µM [inhibitor, single point]",–
O=C1C2CCCCN2C(=O)N1CCN1CCN(c2ccc([N+](=O)[O-])cc2)CC1 (centres undefined),–,inactive: 2.73%
COc1cccc(C(=O)COc2ccc3c(C)cc(=O)oc3c2)c1,"inconclusive: 10 µM [inhibitor, single point]",–
O=C(Cn1cnc2c(nnn2Cc2ccccc2)c1=O)NCc1ccco1,–,inactive: 2.22%
CC[C@H](C)C(=O)O[C@H]1CCC=C2C=C[C@H](C)[C@H](CC[C@@H]3C[C@@H](O)CC(=O)O3)[C@H]21,active: 1.26 µM,–
C/C(=N\NC(=O)Cc1ccc(Cl)cc1)c1cccnc1,–,inactive: -6.31%
CC(C)NS(=O)(=O)c1ccc(Oc2ncc(C(F)(F)F)cc2Cl)cc1,–,inactive: 4.11%
O=c1[nH]cnc2c1ncn2C1OCC(O)C(O)C1O (centres undefined),"inconclusive: 0.398 µM [inhibitor, full curve, poor fit]",–
O=C(CCCCl)NC(=S)Nc1ccc(N2CCOCC2)cc1,–,inactive: -1.94%
O=C(NC(=S)N1CCN(c2ccc(O)cc2)CC1)c1ccco1,"inconclusive: 10 µM [inhibitor, single point]",–
COC(=O)C1=CN(c2ccc(F)cc2)C=C(C(=O)OC)C1c1ccc([N+](=O)[O-])cc1,"inconclusive: 8.91 µM [inhibitor, single point]",–
CS(=O)(=O)N(CC(=O)N1CCc2ccccc2C1)c1ccccc1Br,"inconclusive: 11.2 µM [inhibitor, single point]",–
NC(=O)CC(NC(=O)Cc1ccc(Br)cc1)c1ccc(N2CCC(Br)CC2)c([N+](=O)[O-])c1 (centres undefined),"inconclusive: 12.6 µM [inhibitor, partial curve, poor fit]",–
COc1cc2c(cc1OC)C(c1cc(Br)ccc1F)N(C(=O)CCl)CC2 (centres undefined),"inconclusive: 1.26 µM [inhibitor, partial curve, poor fit]",–
CCOC(=O)/C=c1\s/c(=C\c2ccccc2C)c(=O)n1CC(=O)NCc1ccc2c(c1)OCO2,"inconclusive: 20 µM [inhibitor, single point]",–
O=C(CSc1ccccn1)N/N=C/C=C/c1ccccc1,"inconclusive: 1.58 µM [inhibitor, full curve, poor fit]",–
CCc1ccccc1N(C(C)=O)c1nc(CN=C=S)cs1,"inconclusive: 6.31 µM [inhibitor, partial curve, poor fit]",–
CCOc1ccc(N2CC(O)(c3cccs3)[N+]3=C2CCCC3)cc1 (centres undefined),–,inactive: -9.92%
COc1ccc(CCNC(=O)C(=O)NCC2CCCN2S(=O)(=O)c2ccc(OC)cc2)cc1 (centres undefined),–,inactive: -3.55%
C=CCc1cccc(CNc2nc3ccccc3n2C(C)C)c1O,"inconclusive: 14.1 µM [inhibitor, partial curve, poor fit]",–

SMILES,Potency,"activity change, negative = inhibition"
CCOC(=O)N1CCN(C(=O)CSc2nnc(-c3ccc(C(C)(C)C)cc3)o2)CC1,"inconclusive: 3.55 µM [inhibitor, partial curve, poor fit]",–
O=C(Nc1ccc2c(c1)S(=O)(=O)N=C1CCCCCN12)c1ccccc1Cl,–,inactive: -0.185%
O=C(Cc1coc2cc(O)ccc12)N1CCN(S(=O)(=O)c2ccc(Br)cc2)CC1,"inconclusive: 0.501 µM [inhibitor, full curve, poor fit]",–
COc1ccc(N(C(=O)c2cnccn2)C(C(=O)NC2CCCCC2)c2cc(OC)c(OC)c(OC)c2)cc1 (centres undefined),–,inactive: 0.81%
COc1ccc(-c2c(-c3ccc(OC)nc3)c3ccccc3n2C)cc1,"inconclusive: 7.94 µM [inhibitor, single point]",–
Cn1c(NC(=O)CCC2CCCCC2)cc(=O)n(C)c1=O,"inconclusive: 15.8 µM [inhibitor, partial curve, poor fit]",–
CCOC(=O)Cn1nc(C)c(NC(=O)COc2ccccc2)c1C,–,inactive: -5.17%
c1ccc2nc(-c3ccc4c(c3)OCO4)ccc2c1,"inconclusive: 6.31 µM [inhibitor, partial curve, poor fit]",–
COc1ccc(C(CC(=O)c2ccc(O)cc2)S(=O)(=O)c2ccc(C)cc2)cc1 (centres undefined),"inconclusive: 11.2 µM [inhibitor, single point]",–
CCCc1cc(=O)[nH]c(SCC(=O)N2c3ccccc3CC2C)n1 (centres undefined),"inconclusive: 0.355 µM [inhibitor, full curve, poor fit]",–
Cn1ccc2cc(NC(=O)Nc3cccnc3)ccc21,"inconclusive: 6.31 µM [inhibitor, single point]",–
COc1cccc(NC(=O)Nc2ccncc2)c1,"inconclusive: 0.708 µM [inhibitor, partial curve, poor fit]",–
CN(CC1COc2ccccc2O1)C(=O)Cn1cc(C(F)(F)F)ccc1=O (centres undefined),"inconclusive: 1 µM [inhibitor, partial curve, poor fit]",–
O=C(O)CCN1CCc2ccccc21,–,inactive: 1.81%
N#Cc1c(/N=C/N2CCOCC2)sc2c1CCCCC2,–,inactive: -3.78%
O=C(COC(=O)c1ccc(Br)o1)Nc1nc2ccccc2s1,–,inactive: 6.19%
Cc1cc(C(=O)CSc2nc3ccccc3[nH]2)c(C)n1Cc1ccco1,"inconclusive: 25.1 µM [inhibitor, single point]",–
CCc1ccc(/C=C2/SC(N3CCOCC3)=NC2=O)cc1,–,inactive: -3.18%
CCN(CC)CCNc1cc(C)nc2c1C(=O)C(=O)C=C2N1CCCCC1,"inconclusive: 12.6 µM [inhibitor, single point]",–
CCn1nc(C)c(CN2CCCC(C(=O)c3cccc(OC(C)C)c3)C2)c1C (centres undefined),"inconclusive: 2.82 µM [inhibitor, full curve]",–
CCOC(=O)C1=NNC(C(=O)c2ccc(Cl)cc2)C1c1ccc(OC)cc1 (centres undefined),–,inactive: -0.741%
Cc1ccc(C)c2nc(Cl)c(C3NC(=O)c4ccccc4N3)cc12 (centres undefined),"inconclusive: 8.91 µM [inhibitor, single point]",–

# A draw from above in order of length of the SMILES, smallest number first:
SMILES,Potency,"activity change, negative = inhibition"
O=C(O)CCN1CCc2ccccc21,–,inactive: 1.81%
Cn1ccc2cc(NC(=O)Nc3cccnc3)ccc21,"inconclusive: 6.31 µM [inhibitor, single point]",–
N#Cc1c(/N=C/N2CCOCC2)sc2c1CCCCC2,–,inactive: -3.78%
Cn1c(NC(=O)CCC2CCCCC2)cc(=O)n(C)c1=O,"inconclusive: 15.8 µM [inhibitor, partial curve, poor fit]",–
O=C(COC(=O)c1ccc(Br)o1)Nc1nc2ccccc2s1,–,inactive: 6.19%
CCOC(=O)Cn1nc(C)c(NC(=O)COc2ccccc2)c1C,–,inactive: -5.17%
CCCc1cc(=O)[nH]c(SCC(=O)N2c3ccccc3CC2C)n1 (centres undefined),"inconclusive: 0.355 µM [inhibitor, full curve, poor fit]",–
COc1ccc(-c2c(-c3ccc(OC)nc3)c3ccccc3n2C)cc1,"inconclusive: 7.94 µM [inhibitor, single point]",–
CCOC(=O)C1=NNC(C(=O)c2ccc(Cl)cc2)C1c1ccc(OC)cc1 (centres undefined),–,inactive: -0.741%
O=C(Nc1ccc2c(c1)S(=O)(=O)N=C1CCCCCN12)c1ccccc1Cl,–,inactive: -0.185%
O=C(Cc1coc2cc(O)ccc12)N1CCN(S(=O)(=O)c2ccc(Br)cc2)CC1,"inconclusive: 0.501 µM [inhibitor, full curve, poor fit]",–
COc1ccc(N(C(=O)c2cnccn2)C(C(=O)NC2CCCCC2)c2cc(OC)c(OC)c(OC)c2)cc1 (centres undefined),–,inactive: 0.81%
